From article PMC6608615
No constants are given. Whether binding was seen depends on the method and setting. Binding calls can cover weak binding; strength is not graded here.

T1: Cox2 subunit of N. crassa cytochrome c oxidase (complex IV) (N. crassa (endogenous in mitochondria of strain GR-107)) (UniProt P00411)
T1 sequence: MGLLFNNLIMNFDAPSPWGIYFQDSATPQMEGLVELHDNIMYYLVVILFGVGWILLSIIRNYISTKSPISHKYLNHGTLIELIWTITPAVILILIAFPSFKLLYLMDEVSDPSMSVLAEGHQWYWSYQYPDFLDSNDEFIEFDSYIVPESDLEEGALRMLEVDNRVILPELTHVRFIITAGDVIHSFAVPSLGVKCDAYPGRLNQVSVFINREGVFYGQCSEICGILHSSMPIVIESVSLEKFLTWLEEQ


Assays:
[1] = molecular target: T1, Cox2 subunit of N. crassa cytochrome c oxidase (complex IV) (N. crassa (endogenous in mitochondria of strain GR-107)); test: cryo-EM structure; complex IV purified from N. crassa mitochondria (1% DDM, nickel IMAC without an affinity tag), reconstituted into MSP2N2 lipid nanodiscs (POPC, POPE, cholesterol), Superose 6 gel filtration; single-particle cryo-EM, 300 kV, map at 5.5 Å; subunits assigned by rigid-body fit of the S. cerevisiae model PDB 6hu9; both purified
[2] = molecular target: Cox4 subunit of N. crassa cytochrome c oxidase (complex IV) (N. crassa (endogenous in mitochondria of strain GR-107)); test: as above

binding [1] | binding [2] | Molecule
binds |  | Cox6b subunit of N. crassa cytochrome c oxidase (complex IV)
 | binds | Cox3 subunit of N. crassa cytochrome c oxidase (complex IV) (protein, UniProt P00422 1-269) MTNLIRSNFQDHPFHLVSPSPWPLNTSVCLLNLTTTGALSMHNFNNIHYLYYIALIGLVSAMFLWFRDIISEGTFLGDHTLAVQRGLNLGIILFIVSEALFFLAIFWAFFHSALTPTVELGAQWPPIGIEPVNPFELPLLNTVILLSSGATITYAHHALIKGEREGALYGSIATILLAIIFTGFQGVEYSVSSFTISDGAFGTCFFFSTGFHGIHVIIGTIFLAVALWRIFAYHLTDNHHVGFEGGILYWHFVDVVWLFLYISVYYWGS
 | binds | Cox2 subunit of N. crassa cytochrome c oxidase (complex IV) (protein, UniProt P00411 1-250) MGLLFNNLIMNFDAPSPWGIYFQDSATPQMEGLVELHDNIMYYLVVILFGVGWILLSIIRNYISTKSPISHKYLNHGTLIELIWTITPAVILILIAFPSFKLLYLMDEVSDPSMSVLAEGHQWYWSYQYPDFLDSNDEFIEFDSYIVPESDLEEGALRMLEVDNRVILPELTHVRFIITAGDVIHSFAVPSLGVKCDAYPGRLNQVSVFINREGVFYGQCSEICGILHSSMPIVIESVSLEKFLTWLEEQ
